{"source": "PubChem BioAssay AID1904 (GNF, 2009)", "assay": "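Knockdowns that alter circadian period or oscillation amplitude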 (follow-up of hits)", "system": "human U2OS osteosarcoma cells stably expressing a destabilised luciferase driven by the Bmal1 promoter", "reagent": "siRNA pair against human genes, 12.5 nM (two siRNAs, 0.5 pmol each, per well)", "time to read-out": "about 3 days after transfection, then luminescence recorded for about 4 days", "detection": "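Bmal1 reporter light output measured every 2 hours over several days, detrended, then fitted to give period and amplitude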", "call rule": "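Scored active if separate single siRNAs repeated the clock phenotype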", "meaning of the calls": "active = confirmed by single siRNAs; inactive = not confirmed", "note": "Only reagents picked out of a larger screen are listed. 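Lists only primary-screen hits; phenotype classes come from fitted traces, and the underlying luminescence values are not given.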 The numbers tell different reagents against one gene apart."}
{"gene":"TRIM59","reagent no.":1,"clock phenotype class":"longer clock period; seen with two independent siRNA pairs for the gene","confirmed with single siRNAs":"phenotype reproduced by individual siRNAs","Call":"active"}
{"gene":"TRIM59","reagent no.":2,"clock phenotype class":"longer clock period; seen with two independent siRNA pairs for the gene","confirmed with single siRNAs":"phenotype reproduced by individual siRNAs","Call":"active"}
{"gene":"CLCN6","reagent no.":1,"clock phenotype class":"higher rhythm amplitude; seen with one siRNA pair in duplicate wells","confirmed with single siRNAs":"not retested with individual siRNAs"}
{"gene":"CLCN6","reagent no.":2,"clock phenotype class":"higher rhythm amplitude; seen with one siRNA pair in duplicate wells","confirmed with single siRNAs":"not retested with individual siRNAs"}
{"gene":"SLC24A3","reagent no.":1,"clock phenotype class":"longer clock period; seen with two independent siRNA pairs for the gene","confirmed with single siRNAs":"phenotype reproduced by individual siRNAs","Call":"active"}
{"gene":"SLC24A3","reagent no.":2,"clock phenotype class":"longer clock period; seen with two independent siRNA pairs for the gene","confirmed with single siRNAs":"phenotype reproduced by individual siRNAs","Call":"active"}
{"gene":"TNK2","reagent no.":1,"clock phenotype class":"longer clock period; seen with two independent siRNA pairs for the gene","confirmed with single siRNAs":"phenotype reproduced by individual siRNAs","Call":"active"}
{"gene":"TNK2","reagent no.":2,"clock phenotype class":"longer clock period; seen with two independent siRNA pairs for the gene","confirmed with single siRNAs":"phenotype reproduced by individual siRNAs","Call":"active"}
{"gene":"SLC22A8","reagent no.":1,"clock phenotype class":"longer clock period; seen with two independent siRNA pairs for the gene","confirmed with single siRNAs":"phenotype reproduced by individual siRNAs","Call":"active"}
{"gene":"SLC22A8","reagent no.":2,"clock phenotype class":"longer clock period; seen with two independent siRNA pairs for the gene","confirmed with single siRNAs":"phenotype reproduced by individual siRNAs","Call":"active"}
{"gene":"PNRC2","reagent no.":1,"clock phenotype class":"longer clock period; seen with two independent siRNA pairs for the gene","confirmed with single siRNAs":"phenotype reproduced by individual siRNAs","Call":"active"}
{"gene":"PNRC2","reagent no.":2,"clock phenotype class":"longer clock period; seen with two independent siRNA pairs for the gene","confirmed with single siRNAs":"phenotype reproduced by individual siRNAs","Call":"active"}
{"gene":"ZNF273","reagent no.":1,"clock phenotype class":"shorter clock period; seen with two independent siRNA pairs for the gene","confirmed with single siRNAs":"phenotype reproduced by individual siRNAs","Call":"active"}
{"gene":"ZNF273","reagent no.":2,"clock phenotype class":"shorter clock period; seen with two independent siRNA pairs for the gene","confirmed with single siRNAs":"phenotype reproduced by individual siRNAs","Call":"active"}
{"gene":"SFN","reagent no.":1,"clock phenotype class":"higher rhythm amplitude; seen with one siRNA pair in duplicate wells","confirmed with single siRNAs":"phenotype not reproduced by individual siRNAs","Call":"inconclusive"}
{"gene":"SFN","reagent no.":2,"clock phenotype class":"higher rhythm amplitude; seen with one siRNA pair in duplicate wells","confirmed with single siRNAs":"phenotype not reproduced by individual siRNAs","Call":"inconclusive"}
{"gene":"FKBP11","reagent no.":1,"clock phenotype class":"higher rhythm amplitude; seen with one siRNA pair in duplicate wells","confirmed with single siRNAs":"phenotype reproduced by individual siRNAs","Call":"active"}
{"gene":"FKBP11","reagent no.":2,"clock phenotype class":"higher rhythm amplitude; seen with one siRNA pair in duplicate wells","confirmed with single siRNAs":"phenotype reproduced by individual siRNAs","Call":"active"}
{"gene":"RGPR","reagent no.":1,"clock phenotype class":"longer clock period; seen with two independent siRNA pairs for the gene","confirmed with single siRNAs":"phenotype reproduced by individual siRNAs","Call":"active"}
{"gene":"RGPR","reagent no.":2,"clock phenotype class":"longer clock period; seen with two independent siRNA pairs for the gene","confirmed with single siRNAs":"phenotype reproduced by individual siRNAs","Call":"active"}
{"gene":"C20orf160","reagent no.":1,"clock phenotype class":"shorter clock period; seen with two independent siRNA pairs for the gene","confirmed with single siRNAs":"phenotype not reproduced by individual siRNAs","Call":"inconclusive"}
{"gene":"C20orf160","reagent no.":2,"clock phenotype class":"shorter clock period; seen with two independent siRNA pairs for the gene","confirmed with single siRNAs":"phenotype not reproduced by individual siRNAs","Call":"inconclusive"}
{"gene":"SUV420H1","reagent no.":1,"clock phenotype class":"higher rhythm amplitude; seen with one siRNA pair in duplicate wells","confirmed with single siRNAs":"phenotype reproduced by individual siRNAs","Call":"active"}
{"gene":"SUV420H1","reagent no.":2,"clock phenotype class":"higher rhythm amplitude; seen with one siRNA pair in duplicate wells","confirmed with single siRNAs":"phenotype reproduced by individual siRNAs","Call":"active"}
{"gene":"ACTL6A","reagent no.":1,"clock phenotype class":"longer clock period; seen with two independent siRNA pairs for the gene","confirmed with single siRNAs":"phenotype reproduced by individual siRNAs","Call":"active"}
{"gene":"ACTL6A","reagent no.":2,"clock phenotype class":"longer clock period; seen with two independent siRNA pairs for the gene","confirmed with single siRNAs":"phenotype reproduced by individual siRNAs","Call":"active"}

Laid out differently: results already given.
gene	reagent no.	clock phenotype class	confirmed with single siRNAs	Call
SLC22A8	2	longer clock period; seen with two independent siRNA pairs for the gene	phenotype reproduced by individual siRNAs	active
PNRC2	1	longer clock period; seen with two independent siRNA pairs for the gene	phenotype reproduced by individual siRNAs	active
PNRC2	2	longer clock period; seen with two independent siRNA pairs for the gene	phenotype reproduced by individual siRNAs	active

Continued.
{"gene":"RAB3A","reagent no.":1,"clock phenotype class":"longer clock period; seen with two independent siRNA pairs for the gene","confirmed with single siRNAs":"phenotype reproduced by individual siRNAs","Call":"active"}
{"gene":"RAB3A","reagent no.":2,"clock phenotype class":"longer clock period; seen with two independent siRNA pairs for the gene","confirmed with single siRNAs":"phenotype reproduced by individual siRNAs","Call":"active"}
{"gene":"PRO0149","reagent no.":1,"clock phenotype class":"longer clock period; seen with two independent siRNA pairs for the gene","confirmed with single siRNAs":"phenotype reproduced by individual siRNAs","Call":"active"}
{"gene":"PRO0149","reagent no.":2,"clock phenotype class":"longer clock period; seen with two independent siRNA pairs for the gene","confirmed with single siRNAs":"phenotype reproduced by individual siRNAs","Call":"active"}
{"gene":"NPC1L1","reagent no.":1,"clock phenotype class":"shorter clock period; seen with one siRNA pair in duplicate wells","confirmed with single siRNAs":"phenotype reproduced by individual siRNAs","Call":"active"}
{"gene":"NPC1L1","reagent no.":2,"clock phenotype class":"shorter clock period; seen with one siRNA pair in duplicate wells","confirmed with single siRNAs":"phenotype reproduced by individual siRNAs","Call":"active"}
{"gene":"KIAA1797","reagent no.":1,"clock phenotype class":"longer clock period; seen with two independent siRNA pairs for the gene","confirmed with single siRNAs":"phenotype reproduced by individual siRNAs","Call":"active"}
{"gene":"KIAA1797","reagent no.":2,"clock phenotype class":"longer clock period; seen with two independent siRNA pairs for the gene","confirmed with single siRNAs":"phenotype reproduced by individual siRNAs","Call":"active"}
{"gene":"SLC25A27","reagent no.":1,"clock phenotype class":"shorter clock period; seen with one siRNA pair in duplicate wells","confirmed with single siRNAs":"phenotype not reproduced by individual siRNAs","Call":"inconclusive"}
{"gene":"SLC25A27","reagent no.":2,"clock phenotype class":"shorter clock period; seen with one siRNA pair in duplicate wells","confirmed with single siRNAs":"phenotype not reproduced by individual siRNAs","Call":"inconclusive"}
{"gene":"SEC13L1","reagent no.":1,"clock phenotype class":"longer clock period; seen with two independent siRNA pairs for the gene","confirmed with single siRNAs":"phenotype reproduced by individual siRNAs","Call":"active"}
{"gene":"MGC5309","reagent no.":1,"clock phenotype class":"longer clock period; seen with two independent siRNA pairs for the gene","confirmed with single siRNAs":"not retested with individual siRNAs"}
{"gene":"MGC5309","reagent no.":2,"clock phenotype class":"longer clock period; seen with two independent siRNA pairs for the gene","confirmed with single siRNAs":"not retested with individual siRNAs"}
{"gene":"EMP2","reagent no.":1,"clock phenotype class":"longer clock period; seen with two independent siRNA pairs for the gene","confirmed with single siRNAs":"phenotype reproduced by individual siRNAs","Call":"active"}
{"gene":"EMP2","reagent no.":2,"clock phenotype class":"longer clock period; seen with two independent siRNA pairs for the gene","confirmed with single siRNAs":"phenotype reproduced by individual siRNAs","Call":"active"}
